Laboratory results: PubChem BioAssay AID1224830 (NIAID, 2016)
The deposit covers about 18,000 reagents; below is a random part of them. About 2,900 of them (16%) were called active. 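Calls are made per well; low scores hint the gene aids the LPS response, high scores that it dampens it.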 A number with no mark means an inactive call. Repeated entries: four replicate wells of each siRNA pool.

Test: 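Regulators of TLR4 signalling towards TNF-alpha in macrophage-like cells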 (primary screen)
System: human THP-1 monocytic leukaemia cells, TNF dual-luciferase reporter clone, PMA-differentiated to macrophage-like cells
Reagents: siRNA pool against human genes, 50 nM
Duration: LPS for 4 h, given about 3 days after siRNA transfection
Treatment: bacterial LPS (TLR4 ligand), 10 ng/ml
Measured: 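Ratio of firefly to renilla light, scaled to the plate median and expressed as a robust z-score per replicate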
Reading the numbers: TNF reporter robust z-score: higher = stronger TNF reporter response to LPS
Hit rule: 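a well is active when its z-score exceeds 2.8 or falls below -1.5; control wells carry no call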

GABRA1 (gamma-aminobutyric acid type A receptor subunit alpha1): TNF reporter robust z-score = -0.74
GABRA1 (gamma-aminobutyric acid type A receptor subunit alpha1): TNF reporter robust z-score = 0.39
GABRA1 (gamma-aminobutyric acid type A receptor subunit alpha1): TNF reporter robust z-score = -1.05
GABRA1 (gamma-aminobutyric acid type A receptor subunit alpha1): TNF reporter robust z-score = -0.45
ACOXL (acyl-CoA oxidase like): TNF reporter robust z-score = 0.6
ACOXL (acyl-CoA oxidase like): TNF reporter robust z-score = 1.11
ACOXL (acyl-CoA oxidase like): TNF reporter robust z-score = 0.76
ACOXL (acyl-CoA oxidase like): TNF reporter robust z-score = 1.89
ATAD3A (ATPase family AAA domain containing 3A): TNF reporter robust z-score = 1.75
ATAD3A (ATPase family AAA domain containing 3A): TNF reporter robust z-score = 3.89 (active)
ATAD3A (ATPase family AAA domain containing 3A): TNF reporter robust z-score = 1.55
ATAD3A (ATPase family AAA domain containing 3A): TNF reporter robust z-score = 3.93 (active)
CDC42EP1 (CDC42 effector protein 1): TNF reporter robust z-score = -0.72
CDC42EP1 (CDC42 effector protein 1): TNF reporter robust z-score = -0.63
CDC42EP1 (CDC42 effector protein 1): TNF reporter robust z-score = -0.3
CDC42EP1 (CDC42 effector protein 1): TNF reporter robust z-score = -0.39
FAM13C (family with sequence similarity 13 member C): TNF reporter robust z-score = 0.26
FAM13C (family with sequence similarity 13 member C): TNF reporter robust z-score = 0.92
FAM13C (family with sequence similarity 13 member C): TNF reporter robust z-score = 0.7
FAM13C (family with sequence similarity 13 member C): TNF reporter robust z-score = 0.56
C2orf68 (chromosome 2 open reading frame 68): TNF reporter robust z-score = 5.83 (active)
C2orf68 (chromosome 2 open reading frame 68): TNF reporter robust z-score = 3.99 (active)
C2orf68 (chromosome 2 open reading frame 68): TNF reporter robust z-score = 1.1
C2orf68 (chromosome 2 open reading frame 68): TNF reporter robust z-score = -0.4
SCN3A (sodium voltage-gated channel alpha subunit 3): TNF reporter robust z-score = 0.87
SCN3A (sodium voltage-gated channel alpha subunit 3): TNF reporter robust z-score = 1.47
SCN3A (sodium voltage-gated channel alpha subunit 3): TNF reporter robust z-score = -0.78
SCN3A (sodium voltage-gated channel alpha subunit 3): TNF reporter robust z-score = -0.15
LRSAM1 (leucine rich repeat and sterile alpha motif containing 1): TNF reporter robust z-score = 0.18
LRSAM1 (leucine rich repeat and sterile alpha motif containing 1): TNF reporter robust z-score = -0.26
LRSAM1 (leucine rich repeat and sterile alpha motif containing 1): TNF reporter robust z-score = -1.16
LRSAM1 (leucine rich repeat and sterile alpha motif containing 1): TNF reporter robust z-score = -0.91
RPS27L (ribosomal protein S27 like): TNF reporter robust z-score = -0.15
RPS27L (ribosomal protein S27 like): TNF reporter robust z-score = -0.31
RPS27L (ribosomal protein S27 like): TNF reporter robust z-score = 0
RPS27L (ribosomal protein S27 like): TNF reporter robust z-score = -0.03
ERMP1 (endoplasmic reticulum metallopeptidase 1): TNF reporter robust z-score = 0.3
ERMP1 (endoplasmic reticulum metallopeptidase 1): TNF reporter robust z-score = 1.84
ERMP1 (endoplasmic reticulum metallopeptidase 1): TNF reporter robust z-score = 0.37
ERMP1 (endoplasmic reticulum metallopeptidase 1): TNF reporter robust z-score = 1.05
ENOX1 (ecto-NOX disulfide-thiol exchanger 1): TNF reporter robust z-score = -0.37
ENOX1 (ecto-NOX disulfide-thiol exchanger 1): TNF reporter robust z-score = 1.38
ENOX1 (ecto-NOX disulfide-thiol exchanger 1): TNF reporter robust z-score = -0.8
ENOX1 (ecto-NOX disulfide-thiol exchanger 1): TNF reporter robust z-score = -0.74
GINM1 (glycosylated integral membrane protein 1): TNF reporter robust z-score = -0.91
GINM1 (glycosylated integral membrane protein 1): TNF reporter robust z-score = -0.31
GINM1 (glycosylated integral membrane protein 1): TNF reporter robust z-score = 0.32
GINM1 (glycosylated integral membrane protein 1): TNF reporter robust z-score = 0.69

5 entries already listed, ordered by “TNF reporter robust z-score”, highest first:
GINM1 (glycosylated integral membrane protein 1): TNF reporter robust z-score = 0.32
GINM1 (glycosylated integral membrane protein 1): TNF reporter robust z-score = -0.31
ENOX1 (ecto-NOX disulfide-thiol exchanger 1): TNF reporter robust z-score = -0.74
ENOX1 (ecto-NOX disulfide-thiol exchanger 1): TNF reporter robust z-score = -0.8
GINM1 (glycosylated integral membrane protein 1): TNF reporter robust z-score = -0.91
